Reference: PubChem BioAssay AID1645878 (National Center for Advancing Translational Sciences (NCATS), 2021)
Inconclusive means that the source gave no clear call. Such entries were picked first, then a sample of the others. Where the call is inconclusive, the potency comes from a doubtful curve fit. The source made the active and inactive calls. Calls follow the shape of the dose curve; as a rule, active = well fitted inhibition curve with a large enough effect; inconclusive = small, poorly fitted or top-dose-only effect; inactive = no such curve, though single readings can be large or run the other way.

Chains of the proteins cited; added tags and fusions are not shown. Lines headed by an entry give the natural chain unless they say otherwise; changes in a name come on top.
UniProt P40261: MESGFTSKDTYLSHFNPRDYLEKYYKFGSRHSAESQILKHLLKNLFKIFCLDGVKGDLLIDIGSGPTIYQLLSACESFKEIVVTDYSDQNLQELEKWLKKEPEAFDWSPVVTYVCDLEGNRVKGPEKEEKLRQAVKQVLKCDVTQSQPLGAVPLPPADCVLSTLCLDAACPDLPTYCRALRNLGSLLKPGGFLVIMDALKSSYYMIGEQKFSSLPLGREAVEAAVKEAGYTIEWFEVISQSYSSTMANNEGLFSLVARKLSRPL

Molecular target: Nicotinamide N-methyltransferase (Homo sapiens) (UniProt P40261)
Assay: Counterscreen qHTS for Inhibitors of N-terminal methyltransferase 1 (NTMT1): NNMT MTaseGlo assay
Method in brief: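 NNMT (125 nM) with 100 uM SAM preincubated 15 min with compound, then 1 uM nicotinamide added for 30 min at room temperature. SAH detected via MTase-Glo luminescence; normalized to no-enzyme and DMSO controls, 4-parameter Hill fit.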

Structure (SMILES) | Potency
O=C([C@@H]1CCCN(c2ccc3[nH]c(C4(n5cc(Cl)cn5)CC4)nc3n2)C1)N1CCCC1 | inactive
CCCCCOc1ccc(-c2ccc(-c3ccc(C(=O)N[C@H]4C[C@@H](O)[C@@H](O)NC(=O)[C@@H]5[C@@H](O)[C@@H](C)CN5C(=O)[C@H]([C@@H](C)O)NC(=O)[C@H]([C@H](O)[C@@H](O)c5ccc(O)cc5)NC(=O)[C@@H]5C[C@@H](O)CN5C(=O)[C@H]([C@@H](C)O)NC4=O)cc3)cc2)cc1 | inactive
C=Cc1cc2oc(-c3ccc(O)c(F)c3)nc2cc1O | inconclusive: 25.1 µM [inhibitor, partial curve]
NC(=NCCCCCCN=C(N)/N=C(\N)Nc1ccc(Cl)cc1)/N=C(\N)Nc1ccc(Cl)cc1 | inconclusive: 35.5 µM [inhibitor, partial curve, poor fit]
Cc1cc(C)c2c(N)c(C(=O)NCc3ccc(Cl)cc3)sc2n1 | inactive
C=Cc1cc(O)cc2nc(-c3ccc(O)c(F)c3)oc12 | inconclusive: 39.8 µM [inhibitor, partial curve]
O=C(Nc1cc2cc[nH]c2cn1)c1ccccc1 | active: 14.1 µM
O=C(O)c1cc(N(Cc2ccc(C3CCCCC3)cc2)C(=O)c2ccc(Oc3ccccc3)cc2)ccc1O | inactive
Nc1[nH]nc2nnc(-c3c(-c4ccccc4)nn4ccccc34)cc12 | active: 11.2 µM
COc1ccc2nc(-c3cc(OC)c(OC)c(OC)c3)cc(C(=O)NCC(=O)Nc3ccc(C(C)=O)cc3)c2c1 | inconclusive: 35.5 µM [inhibitor, partial curve, poor fit]
OCCn1cc(-c2cnc3nnn(Cc4ccc5ncccc5c4)c3n2)cn1 | inactive
CC[N+]1(C/C2=C/CCCCCC2)CCC(NC(=O)C2c3cc(Cl)ccc3Oc3ccc(Cl)cc32)CC1 (stereo not drawn) | inconclusive: 39.8 µM [inhibitor, partial curve, poor fit]
COc1c/c(=C2\C=c3ccccc3=N2)[nH]/c1=C/c1[nH]c(C)cc1C | inconclusive: 35.5 µM [inhibitor, partial curve]
c1ccc(-c2oc3ncnc(NC[C@@H]4CCCO4)c3c2-c2ccccc2)cc1 | inconclusive: 10 µM [inhibitor, full curve]
O=C(O)c1ccc2c(c1)nc(Nc1cccc(Cl)c1)c1ccncc12 | inconclusive: 35.5 µM [inhibitor, partial curve]
CC[C@@H](c1ccc(F)c(F)c1)n1c(C(=O)OC)c(-c2ccno2)[nH]c1=S | inconclusive: 39.8 µM [inhibitor, partial curve, poor fit]
COc1c(C)c(C(=O)c2ccc(N)c(C(=O)O)c2)n2ccccc12 | inactive
COc1cccc(-c2cn(-c3ccc(CCN4CCC(O)CC4)cc3)c3ncnc(N)c23)c1 | inconclusive: 25.1 µM [inhibitor, partial curve]
CCOc1ccc(Cc2nc(-c3c(C)nc4ccccn34)cs2)cc1 | inconclusive: 28.2 µM [inhibitor, partial curve, poor fit]
N#Cc1cccc(-c2c[nH]c3ncnc(N4CCOCC4)c23)c1 | inconclusive: 31.6 µM [inhibitor, partial curve]
C#Cc1cccc(Nc2ncnc3cc(OC)c(OCCCCCCC(=O)NO)cc23)c1 | inconclusive: 44.7 µM [inhibitor, partial curve]
CNC(=O)c1ccccc1Nc1cc(Nc2ccc(N3CCOCC3)cc2OC)ncc1C(F)(F)F | inconclusive: 39.8 µM [inhibitor, partial curve, poor fit]
CC/C(=C(\c1ccc(O)cc1)c1ccc(OCCNC)cc1)c1ccccc1 | inconclusive: 25.1 µM [inhibitor, partial curve, poor fit]

Given with tabs: part of the list above
Structure (SMILES)	Potency
NC(=NCCCCCCN=C(N)/N=C(\N)Nc1ccc(Cl)cc1)/N=C(\N)Nc1ccc(Cl)cc1	inconclusive: 35.5 µM [inhibitor, partial curve, poor fit]
N#Cc1cccc(-c2c[nH]c3ncnc(N4CCOCC4)c23)c1	inconclusive: 31.6 µM [inhibitor, partial curve]
